# Experimental data published in PMC10258020.
# No constants are given. Whether binding was seen depends on the method and setting. Binding seen in cells or lysates may run through a third protein. Some results given as binding are weak or reduced against the parent protein; the word gives no strength.
# Target: Ras-GTPase-activating protein SH3-domain-binding protein 1 (G3BP1) (human (endogenous in SH-SY5Y)) (UniProt Q13283)
# Assay: co-IP; stress granule cores from SH-SY5Y cells treated with 500 uM sodium arsenite for 1 h, immunoprecipitated with anti-G3BP1 antibody (BD Biosciences, 611126) and Dynabeads Protein G at 4°C in SG lysis buffer (50 mM Tris-HCl pH 7.4, 100 mM KOAc, 2 mM MgOAc, 0.5 mM DTT, 50 ug/mL heparin, 0.5% NP-40); proteins detected in the purified cores
binder,measurement,value
"Ras-GTPase-activating protein SH3-domain-binding protein 2 (G3BP2) (protein, UniProt Q9UN86 1-482) MVMEKPSPLLVGREFVRQYYTLLNKAPEYLHRFYGRNSSYVHGGVDASGKPQEAVYGQNDIHHKVLSLNFSECHTKIRHVDAHATLSDGVVVQVMGLLSNSGQPERKFMQTFVLAPEGSVPNKFYVHNDMFRYEDEVFGDSEPELDEESEDEVEEEQEERQPSPEPVQENANSGYYEAHPVTNGIEEPLEESSHEPEPEPESETKTEELKPQVEEKNLEELEEKSTTPPPAEPVSLPQEPPKAFSWASVTSKNLPPSGTVSSSGIPPHVKAPVSQPRVEAKPEVQSQPPRVREQRPRERPGFPPRGPRPGRGDMEQNDSDNRRIIRYPDSHQLFVGNLPHDIDENELKEFFMSFGNVVELRINTKGVGGKLPNFGFVVFDDSEPVQRILIAKPIMFRGEVRLNVEEKKTRAARERETRGGGDDRRDIRRNDRGPGGPRGIVGGGMMRDRDGRGPPPRGGMAQKLGSGRGTGQMEGRFTGQRR",binding,binds
